Our source for the binding values is PMC10792529 (Proteins, 2023).

The target of experiment [1] is TurandotA protein from Drosophila melanogaster (Drosophila melanogaster) (UniProt Q8IN44). Kind of experiment: SEC + other: NMR relaxation; recombinant TotA in solution; data not shown; both purified.
For another experiment, the target named is T1, human SUN1 SUN domain (human, UniProt O94901 589-785).
T1 sequence: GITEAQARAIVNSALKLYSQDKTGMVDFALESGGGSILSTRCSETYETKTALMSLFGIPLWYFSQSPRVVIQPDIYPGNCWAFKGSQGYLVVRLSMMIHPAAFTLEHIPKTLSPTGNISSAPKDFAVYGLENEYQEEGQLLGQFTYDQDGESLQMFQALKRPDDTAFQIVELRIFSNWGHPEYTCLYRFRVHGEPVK
Kind of experiment: crystal structure; SUN1-KASH6 complex, nine SUN domains and six KASH peptides; both purified.

Results are given in words; binding and its absence hold for the method and conditions named. Some binding calls cover weakened binding; strength is not graded here.

B1: TurandotA protein from Drosophila melanogaster (protein, UniProt Q8IN44 22-129)
chain: YSDEDREADNLRIAEIIKNAQDDDSKINSTQELLDIYRRLYPSLTPEERESIDKFVNEHTDAIIIDGVPIQGGRKARIVGKIVSPGVKGLATGFFEELGSKLAQLFTG
For B1, the binding result in experiment [1] is reported as “no binding”.

Consider TGQLFQKSVDAAPTQQEDSWTSLEHILWPFTRLRHNGPPPV [KASH6 peptide, the KASH domain of JAW1/LRMP], for which the binding result in the experiment with human SUN1 SUN domain is “binds”.
